Values from PubChem BioAssay AID686938 (Drosophila RNAi Screening Center, 2013)
The deposit covers about 23,000 reagents; this is a random part of those that have a named target and a result. In the full data, 75 (0.33%) got an active call. 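Raw plate signals without normalisation; calls rest on plate z-scores that were not deposited; ratio present for only 364 wells.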 Names joined by + are all predicted targets of the reagent. Not given: the dose of the treatment.

Assay: 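Knock-downs reducing store-operated calcium influx in Drosophila cells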 (primary screen)
Cells: Drosophila S2R+ cells
Reagents: long dsRNA against Drosophila genes, about 0.25 µg dsRNA per well, roughly 10,000 cells
Timing: 5 days of knock-down before the calcium assay
Challenge: thapsigargin (SERCA pump blocker) to empty calcium stores; entry signal taken 4 min after adding it
Measured: 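Per-well fluo-4 fluorescence in two replicates, unnormalised, measured in resting cells and 4 min after store depletion by the SERCA blocker thapsigargin; ratio of the two present in few wells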
Direction: calcium entry signal: higher = stronger calcium signal after store depletion; entry to resting ratio: higher = more calcium entry relative to resting level; resting calcium signal: higher = higher resting calcium signal
Rule for the call: 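Called when the plate z-score of the entry-to-rest ratio, mean of duplicates, falls below −3; wells with low overall dye signal (Fmax z below −2) or more than five off-targets excluded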
Meaning of the calls: active = strongly reduced calcium entry; inactive = no strong reduction

The first 4 entries, to show the layout:
target gene | amplicon | calcium entry signal, replicate 1 (fluorescence units) | calcium entry signal, replicate 2 (fluorescence units) | entry to resting ratio | resting calcium signal, replicate 1 (fluorescence units) | resting calcium signal, replicate 2 (fluorescence units) | call
CG12684 | DRSC17875 | 3.18e7 | 4.33e7 | – | 1.55e7 | 1.98e7 | inactive
mys | DRSC18799 | 2.70e7 | 4.05e7 | – | 1.22e7 | 1.82e7 | inactive
grk | DRSC03540 | 4.33e7 | – | – | 2.56e7 | – | inactive
ATPsynbeta | DRSC17194 | 4.69e7 | 3.95e7 | 1.9 | 2.52e7 | 2.21e7 | inactive

Main list, from the start:
target gene | amplicon | calcium entry signal, replicate 1 (fluorescence units) | calcium entry signal, replicate 2 (fluorescence units) | entry to resting ratio | resting calcium signal, replicate 1 (fluorescence units) | resting calcium signal, replicate 2 (fluorescence units) | call
CG12684 | DRSC17875 | 3.18e7 | 4.33e7 | – | 1.55e7 | 1.98e7 | inactive
mys | DRSC18799 | 2.70e7 | 4.05e7 | – | 1.22e7 | 1.82e7 | inactive
grk | DRSC03540 | 4.33e7 | – | – | 2.56e7 | – | inactive
ATPsynbeta | DRSC17194 | 4.69e7 | 3.95e7 | 1.9 | 2.52e7 | 2.21e7 | inactive
skd | DRSC11898 | 2.75e7 | 4.11e7 | – | 1.49e7 | 1.86e7 | inactive
CG42535 | DRSC09041 | 4.47e7 | 3.56e7 | – | 2.40e7 | 1.67e7 | inactive
Ance-3 | DRSC02648 | 4.30e7 | 2.88e7 | – | 1.85e7 | 1.39e7 | inactive
Ance-3 | DRSC02649 | 5.31e7 | 3.76e7 | – | 2.32e7 | 1.75e7 | inactive
CG10184 | DRSC14204 | 4.36e7 | 4.29e7 | – | 2.03e7 | 2.03e7 | inactive
CG31468 | DRSC13637 | 3.27e7 | 2.97e7 | – | 1.49e7 | 1.43e7 | inactive
Tsp68C | DRSC09295 | 2.06e7 | 2.93e7 | – | 1.09e7 | 1.32e7 | inactive
NANS | DRSC15743 | 4.18e7 | 4.02e7 | – | 1.97e7 | 2.08e7 | inactive
CG30429 | DRSC04040 | 3.23e7 | 4.45e7 | – | 1.62e7 | 2.08e7 | inactive
CG17930 | DRSC15292 | 3.37e7 | 2.71e7 | – | 1.69e7 | 1.39e7 | inactive
CG30349 | DRSC06421 | 1.71e7 | 2.66e7 | – | 1.07e7 | 1.23e7 | active
CG30349 | DRSC06839 | 1.56e7 | 2.90e7 | – | 9.29e6 | 1.40e7 | inactive
CG18095 | DRSC01948 | 4.39e7 | 3.57e7 | – | 2.05e7 | 1.54e7 | inactive
CkIIbeta | DRSC20230 | 3.44e7 | 4.66e7 | – | 1.77e7 | 2.49e7 | inactive
Cyp4d14 | DRSC18457 | 4.03e7 | 5.75e7 | 2 | 2.04e7 | 2.57e7 | inactive
cpa | DRSC04080 | 3.28e7 | – | – | 1.72e7 | – | inactive
fand | DRSC06967 | 2.09e7 | 1.61e7 | – | 1.24e7 | 9.26e6 | inactive
CG31128 | DRSC13675 | 3.73e7 | 4.47e7 | – | 1.71e7 | 2.21e7 | inactive
para | DRSC19141 | 3.63e7 | 4.60e7 | – | 1.82e7 | 2.02e7 | inactive
para | DRSC20360 | 2.00e7 | 2.62e7 | – | 1.16e7 | 1.17e7 | inactive
Ir7e | DRSC18011 | 4.71e7 | 2.50e7 | – | 2.11e7 | 1.27e7 | inactive
snoRNA:U31:54Ec + snoRNA:snR38:54Eb + snoRNA:U27:54Eb + 8 more | DRSC06458 | 3.58e7 | 4.87e7 | – | 1.75e7 | 2.41e7 | inactive
GlcT | DRSC04525 | 3.61e7 | – | – | 1.83e7 | – | inactive
hkb | DRSC12377 | 3.44e7 | 3.29e7 | – | 1.72e7 | 1.70e7 | inactive
Dg | DRSC06718 | 3.35e7 | 3.93e7 | – | 1.60e7 | 1.76e7 | inactive
Sr-CII | DRSC07557 | 2.60e7 | 4.12e7 | – | 1.38e7 | 1.78e7 | inactive
vn | DRSC11408 | 3.44e7 | 4.45e7 | – | 1.83e7 | 2.06e7 | inactive
vn | DRSC23221 | 3.96e7 | 3.16e7 | – | 2.13e7 | 1.60e7 | inactive
SP1029 | DRSC16848 | 3.28e7 | 4.52e7 | – | 1.65e7 | 1.91e7 | inactive
CG31244 | DRSC21589 | 3.04e7 | 2.62e7 | – | 1.54e7 | 1.20e7 | inactive
pcm | DRSC20361 | 3.33e7 | 4.15e7 | – | 1.55e7 | 1.56e7 | inactive
Mef2 | DRSC07468 | 4.23e7 | 3.21e7 | – | 1.72e7 | 1.53e7 | inactive
AIF | DRSC00696 | 3.79e7 | – | – | 1.75e7 | – | inactive
Lcp65Ae | DRSC11212 | 2.62e7 | 3.39e7 | – | 1.15e7 | 1.26e7 | inactive
btz | DRSC14566 | 3.47e7 | 4.53e7 | – | 1.62e7 | 2.13e7 | inactive
CG8728 | DRSC07251 | 3.73e7 | 2.60e7 | – | 1.65e7 | 1.30e7 | inactive
CG4849 | DRSC15662 | 2.56e7 | 1.99e7 | – | 1.60e7 | 1.19e7 | inactive
lola | DRSC05220 | 5.20e7 | 3.29e7 | – | 3.50e7 | 1.54e7 | inactive
lola | DRSC05221 | 4.09e7 | 2.87e7 | – | 2.92e7 | 1.26e7 | inactive
lola | DRSC05222 | 5.16e7 | 2.73e7 | – | 2.35e7 | 1.13e7 | inactive
lola | DRSC05223 | 4.97e7 | 2.55e7 | – | 3.87e7 | 1.11e7 | inactive
lola | DRSC05224 | 3.03e7 | 4.94e7 | – | 1.41e7 | 2.01e7 | inactive
lola | DRSC06738 | 4.44e7 | 4.04e7 | – | 1.93e7 | 1.91e7 | inactive
lola | DRSC06739 | 4.97e7 | 4.02e7 | – | 2.34e7 | 1.80e7 | inactive
lola | DRSC06740 | 4.35e7 | 4.28e7 | – | 1.87e7 | 2.07e7 | inactive
lola | DRSC06741 | 3.90e7 | 4.23e7 | – | 1.74e7 | 1.64e7 | inactive
lola | DRSC06742 | 5.12e7 | 3.17e7 | – | 2.54e7 | 1.62e7 | inactive
lola | DRSC07646 | 4.07e7 | 4.27e7 | – | 1.76e7 | 1.95e7 | inactive
lola | DRSC07647 | 4.89e7 | 3.92e7 | – | 2.73e7 | 1.73e7 | inactive
Mt2 | DRSC03374 | 3.39e7 | 2.14e7 | – | 1.48e7 | 9.99e6 | inactive
X11Lbeta | DRSC18156 | 4.45e7 | 5.54e7 | – | 2.00e7 | 2.59e7 | inactive
X11Lbeta | DRSC18158 | 4.30e7 | 5.78e7 | – | 1.99e7 | 2.51e7 | inactive
Ir31a | DRSC22358 | 3.62e7 | 5.45e7 | – | 1.75e7 | 2.89e7 | inactive
robl62A | DRSC08153 | 3.73e7 | 4.44e7 | – | 1.88e7 | 2.10e7 | inactive
